Assay results taken from paper PMC4267844, “The Lifestyle Switch Protein Bd0108 of Bdellovibrio bacteriovorus Is an Intrinsically Disordered Protein” (PLoS ONE, 2014).
These are yes or no findings as the source states them, for the method shown.

How the values were obtained:
[1] = target: Bd0108 (Bdellovibrio bacteriovorus HD100) (UniProt Q6MRH6); assay: SEC; SD75 column; 20 mM Tris pH 7.0 100 mM NaCl 2 mM β-ME; late-eluting species re-run stays a single species; both purified
[2] = target: Bd0108 (Bdellovibrio bacteriovorus HD100) (UniProt Q6MRH6); assay: dynamic light scattering; late-eluting gel filtration peak of Bd0108 at 2 mg/mL; 20 mM Tris pH 7.0 100 mM NaCl 2 mM β-ME; read together with circular dichroism; both purified

binding [1]: no binding | binding [2]: no binding (tested: 2 mg/mL)
B1: Bd0108 (natural protein, Bdellovibrio bacteriovorus HD100)
chain: SHMADENANRPVNPGEDPNEAFRSTPFEATTSALGDCRECIAYRTGATTGKGSRRHDDTVSREIKGSSATPGGSEKAGTGRQ
modifications: disulfide between C56 and C59; 15N-labelled in the NMR titration
notes: tripeptide left on the mature N-terminus after thrombin cleavage of the His tag (cloning artefact); Bd0108 of Bdellovibrio bacteriovorus HD100, a 101 amino acid protein with an N-terminal Sec signal peptide; amino acids 23-101 cloned into pET28b; The assigned cloning artefacts (residues 21 and 22) in the titration point to this cytoplasmic construct and not to the PelB construct; also called …
